PubChem BioAssay AID1224828 | NIAID – 2016

- Purpose: 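Knock-downs that increase or decrease LPS-induced p65 nuclear translocation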 (primary screen)
- System: mouse RAW264.7 G9 macrophage reporter cells (GFP-p65, Tnf promoter-mCherry)
- Reagents: siRNA pool against mouse genes, 100 nM
- Time to read-out: 2 days siRNA transfection, then 40 min LPS before fixation
- Conditions: LPS (Salmonella minnesota R595) at 10 ng/ml
- Read-out: 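Microscopy ratio of nuclear to perinuclear-ring GFP-p65 signal, scaled to the plate median; gene score is the average of two replicate robust z-scores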
- Reading the numbers: p65 translocation robust z-score: higher = more nuclear NF-kappaB p65 after LPS than the plate median; nuclear/cytoplasmic p65 ratio: higher = more nuclear NF-kappaB p65
- Rule for the call: 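Active if robust z is above 3.3 (negative regulators) or below -1.56, the Tlr4 control median (positive regulators); activity score 50 or more; control wells not called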
- Calls: active = hit (p65 shift raised or lowered); inactive = no clear change
Shown is a random part of about 17,000 deposited reagents. 762 of them (4.5%) were called active. 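Active calls include both raised and lowered p65 entry, mostly lowered; wells with fewer than 50 cells lack a z-score.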 The raw values are shown without normalisation. Reagents against one gene are numbered here. No sequences are given here.

| Target gene | pool no. | p65 translocation robust z-score | nuclear/cytoplasmic p65 ratio, rep 1 | nuclear/cytoplasmic p65 ratio, rep 2 | low cell count flag | outcome |
| --- | --- | --- | --- | --- | --- | --- |
| Adora1 | 1 | -1.68 | 1.33 | 1.28 | enough cells to score | active |
| Obox1 | 1 | 0.79 | 1.89 | 1.6 | enough cells to score | inactive |
| 5730455P16Rik | 1 | -0.02 | 1.57 | 1.65 | enough cells to score | inactive |
| Fn1 | 1 | -0.53 | 1.33 | 1.34 | enough cells to score | inactive |
| Or6c68 | 1 | – | 1.58 | 0 | fewer than 50 cells per well; well left out of scoring | inactive |
| Vmn1r205 | 1 | – | 1.37 | 1.2 | fewer than 50 cells per well; well left out of scoring | inactive |
| Ldlrad3 | 1 | 1.74 | 1.84 | 1.42 | enough cells to score | inactive |
| Bcas3 | 1 | -0.89 | 1.34 | 1.37 | enough cells to score | inactive |
| Rbm25 | 1 | -0.01 | 1.45 | 1.41 | enough cells to score | inactive |
| Rbm25 | 2 | 0.14 | 1.3 | 1.6 | enough cells to score | inactive |
| Rhoj | 1 | -1.34 | 1.35 | 1.3 | enough cells to score | inactive |
| Ralb | 1 | -0.5 | 1.45 | 1.44 | enough cells to score | inactive |
| Klk1b21 | 1 | -0.09 | 1.49 | 1.47 | enough cells to score | inactive |
| Gdap1l1 | 1 | 0.68 | 1.69 | 1.56 | enough cells to score | inactive |
| Pdzd11 | 1 | 2.17 | 1.52 | 1.92 | enough cells to score | inactive |
| Emc9 | 1 | 0.54 | 1.53 | 1.61 | enough cells to score | inactive |
| Dsn1 | 1 | 0.61 | 1.5 | 1.47 | enough cells to score | inactive |
| Aspdh | 1 | 0.37 | 1.6 | 1.49 | enough cells to score | inactive |
| Sox9 | 1 | – | 1.27 | 1.25 | fewer than 50 cells per well; well left out of scoring | inactive |
| Hlcs | 1 | 1.49 | 1.64 | 1.56 | enough cells to score | inactive |
| Adgrf5 | 1 | -0.93 | 1.39 | 1.43 | enough cells to score | inactive |
| Cldn2 | 1 | 0 | 1.47 | 1.38 | enough cells to score | inactive |
| Rnf150 | 1 | 0 | 1.39 | 1.24 | enough cells to score | inactive |
| Sirpa | 1 | -0.19 | 1.51 | 1.35 | enough cells to score | inactive |
| Nphs2 | 1 | -1.15 | 1.33 | 1.22 | enough cells to score | inactive |
| Phgr1 | 1 | – | 1.35 | 1.73 | fewer than 50 cells per well; well left out of scoring | inactive |
| Sval2 | 1 | 1.57 | 1.66 | 1.38 | enough cells to score | inactive |
| Cldn11 | 1 | -0.86 | 1.3 | 1.27 | enough cells to score | inactive |
| Hrh4 | 1 | 0.71 | 1.57 | 1.73 | enough cells to score | inactive |
| Pnma2 | 1 | -1.28 | 1.28 | 1.08 | enough cells to score | inactive |
| Or8g27 | 1 | -0.02 | 1.44 | 1.23 | enough cells to score | inactive |
| Ttc19 | 1 | 0.08 | 1.64 | 1.61 | enough cells to score | inactive |
| Asrgl1 | 1 | 0.21 | 1.52 | 1.65 | enough cells to score | inactive |
| Nop9 | 1 | 1.49 | 1.64 | 1.61 | enough cells to score | inactive |
| Cyfip2 | 1 | 0.09 | 1.51 | 1.37 | enough cells to score | inactive |
| Son | 1 | -3.65 | 1.14 | 0.919 | enough cells to score | active |
| Slit2 | 1 | 0.88 | 1.59 | 1.7 | enough cells to score | inactive |
| Stat1 | 1 | -0.85 | 1.46 | 1.4 | enough cells to score | inactive |
| Spink5 | 1 | -0.85 | 1.47 | 1.5 | enough cells to score | inactive |
| Necab1 | 1 | 0 | 1.41 | 1.41 | enough cells to score | inactive |
| Pik3c2a | 1 | 0.08 | 1.61 | 1.39 | enough cells to score | inactive |
| Zdhhc13 | 1 | – | 1.25 | 1.21 | fewer than 50 cells per well; well left out of scoring | inactive |
| Mrgprb1 | 1 | 1.14 | 1.99 | 1.74 | enough cells to score | inactive |
| Obp2a | 1 | -0.4 | 1.5 | 1.8 | enough cells to score | inactive |
| Zfp54 | 1 | -1.3 | 1.15 | 1.1 | enough cells to score | inactive |
| Chmp5 | 1 | – | 1.14 | 1.47 | fewer than 50 cells per well; well left out of scoring | inactive |
| Rdm1 | 1 | -0.92 | 1.29 | 1.09 | enough cells to score | inactive |
| Ceacam1 | 1 | 0.75 | 1.54 | 2.08 | enough cells to score | inactive |
| Fbxw13 | 1 | -0.27 | 1.45 | 1.31 | enough cells to score | inactive |
| Cstf1 | 1 | 1.14 | 1.72 | 1.99 | enough cells to score | inactive |
| Il1rl1 | 1 | 0.12 | 1.44 | 1.44 | enough cells to score | inactive |
| Or4a15 | 1 | – | 1.43 | 1.46 | fewer than 50 cells per well; well left out of scoring | inactive |
| Wdr25 | 1 | -1.29 | 1.28 | 1.74 | enough cells to score | inactive |
| Arpc1a | 1 | -1.31 | 1.45 | 1.39 | enough cells to score | inactive |
| Csl | 1 | -1.47 | 1.09 | 1.23 | enough cells to score | inactive |
| Or1a1b | 1 | 0.61 | 1.65 | 1.62 | enough cells to score | inactive |
| Pcdhb8 | 1 | – | 1.1 | 1.33 | fewer than 50 cells per well; well left out of scoring | inactive |
| Or5d43 | 1 | -3.22 | 1.22 | 1.06 | enough cells to score | active |
| Pfdn5 | 1 | -1.15 | 1.39 | 1.18 | enough cells to score | inactive |
| Pfdn5 | 2 | -0.6 | 1.32 | 1.34 | enough cells to score | inactive |
| Isl2 | 1 | -0.93 | 1.42 | 1.2 | enough cells to score | inactive |
| Klhdc2 | 1 | -1.4 | 1.31 | 1.28 | enough cells to score | inactive |
| Ighg3 | 1 | 0.29 | 1.57 | 1.81 | enough cells to score | inactive |
| Zfp53 | 1 | -0.43 | 1.34 | 1.21 | enough cells to score | inactive |
| Med4 | 1 | 0.23 | 1.52 | 1.56 | enough cells to score | inactive |
| Yap1 | 1 | -0.94 | 1.4 | 1.37 | enough cells to score | inactive |
| Pear1 | 1 | – | 1.73 | 1.17 | fewer than 50 cells per well; well left out of scoring | inactive |
| Ndufaf3 | 1 | – | 1.3 | 1.13 | fewer than 50 cells per well; well left out of scoring | inactive |
| Rbm5 | 1 | -1.67 | 1.26 | 1.3 | enough cells to score | active |
| Krtcap2 | 1 | 2.73 | 1.9 | 1.83 | enough cells to score | inactive |
| Dbr1 | 1 | 2.49 | 1.79 | 1.7 | enough cells to score | inactive |
| Camkk2 | 1 | -0.43 | 1.61 | 1.34 | enough cells to score | inactive |
| Fbxo28 | 1 | -1.02 | 1.43 | 1.39 | enough cells to score | inactive |
| Pym1 | 1 | 1.05 | 1.49 | 1.7 | enough cells to score | inactive |
| Slc20a2 | 1 | 1.52 | 1.61 | 1.42 | enough cells to score | inactive |

Part of the list above, reformatted:
Klk1b21
- p65 translocation robust z-score: -0.09
- nuclear/cytoplasmic p65 ratio, rep 1: 1.49
- nuclear/cytoplasmic p65 ratio, rep 2: 1.47
- low cell count flag: enough cells to score
- outcome: inactive

Gdap1l1
- p65 translocation robust z-score: 0.68
- nuclear/cytoplasmic p65 ratio, rep 1: 1.69
- nuclear/cytoplasmic p65 ratio, rep 2: 1.56
- low cell count flag: enough cells to score
- outcome: inactive

Pdzd11
- p65 translocation robust z-score: 2.17
- nuclear/cytoplasmic p65 ratio, rep 1: 1.52
- nuclear/cytoplasmic p65 ratio, rep 2: 1.92
- low cell count flag: enough cells to score
- outcome: inactive

Emc9
- p65 translocation robust z-score: 0.54
- nuclear/cytoplasmic p65 ratio, rep 1: 1.53
- nuclear/cytoplasmic p65 ratio, rep 2: 1.61
- low cell count flag: enough cells to score
- outcome: inactive

Dsn1
- p65 translocation robust z-score: 0.61
- nuclear/cytoplasmic p65 ratio, rep 1: 1.5
- nuclear/cytoplasmic p65 ratio, rep 2: 1.47
- low cell count flag: enough cells to score
- outcome: inactive

Aspdh
- p65 translocation robust z-score: 0.37
- nuclear/cytoplasmic p65 ratio, rep 1: 1.6
- nuclear/cytoplasmic p65 ratio, rep 2: 1.49
- low cell count flag: enough cells to score
- outcome: inactive

Sox9
- nuclear/cytoplasmic p65 ratio, rep 1: 1.27
- nuclear/cytoplasmic p65 ratio, rep 2: 1.25
- low cell count flag: fewer than 50 cells per well; well left out of scoring
- outcome: inactive
